Measured values taken from paper PMC12232897, “Harnessing Negative Photochromism in Styryl Cyanines for Light‐Modulated Proton Transport” (Angewandte Chemie (International Ed. in English), 2025).

Test: Photoisomerization quantum yield (total absorbance method)
Assay type: physicochemical
Conditions: ACN, 365 nm

| SMILES | QY [open →closed] in ACN |
| --- | --- |
| COc1ccc2c(c1)C(C)(C)C(/C=C/c1ccccc1O)=N2 [1b] | 28% |
| CC1(C)C(/C=C/c2ccccc2O)=Nc2ccccc21 [1a] | 46% |
| COc1ccc(O)c(/C=C/C2=Nc3ccccc3C2(C)C)c1 [1c] | 30% |
| CC1(C)C(/C=C/c2cc(F)ccc2O)=Nc2ccccc21 [1e] | 23% |
| CC1(C)C(/C=C/c2ccccc2O)=Nc2ccc(F)cc21 [1d] | 35% |

Same assay, conditions: Milliq Water used as solvent

| SMILES | QY [open →closed] |
| --- | --- |
| CC1(C)C(/C=C/c2ccccc2O)=Nc2ccc(S(=O)(=O)[O-])cc21.[K+] [1f] | 33% ^‡ |

Marks after values point to notes of the source that are not given here.
